Measurements as given in publication PMC10917063.
Results are given in words; binding and its absence hold for the method and conditions named. Sequences can lack the tags named with a protein.

Target: T1, BicD, yeast two-hybrid fusion (Drosophila) (UniProt P16568)
T1 sequence: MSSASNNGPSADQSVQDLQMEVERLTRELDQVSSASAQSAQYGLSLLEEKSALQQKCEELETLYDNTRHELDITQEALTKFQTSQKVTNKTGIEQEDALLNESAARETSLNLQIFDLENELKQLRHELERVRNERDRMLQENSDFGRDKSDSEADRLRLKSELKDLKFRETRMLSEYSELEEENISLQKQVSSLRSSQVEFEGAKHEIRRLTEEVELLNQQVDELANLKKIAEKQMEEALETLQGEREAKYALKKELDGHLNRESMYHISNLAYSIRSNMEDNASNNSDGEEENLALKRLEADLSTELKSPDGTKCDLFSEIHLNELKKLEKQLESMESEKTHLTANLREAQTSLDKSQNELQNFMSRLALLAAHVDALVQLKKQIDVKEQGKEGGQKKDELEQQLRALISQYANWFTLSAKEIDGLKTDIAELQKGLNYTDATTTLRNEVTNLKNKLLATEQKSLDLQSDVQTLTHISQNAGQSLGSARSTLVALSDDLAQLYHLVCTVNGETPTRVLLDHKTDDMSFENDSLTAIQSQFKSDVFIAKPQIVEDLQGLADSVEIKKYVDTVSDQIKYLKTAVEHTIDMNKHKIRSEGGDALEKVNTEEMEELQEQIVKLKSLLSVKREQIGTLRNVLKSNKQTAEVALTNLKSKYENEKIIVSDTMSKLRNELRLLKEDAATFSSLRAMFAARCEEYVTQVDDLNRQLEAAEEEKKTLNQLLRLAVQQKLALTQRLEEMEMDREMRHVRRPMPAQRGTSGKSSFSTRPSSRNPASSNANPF
Assay: two-hybrid; yeast two-hybrid; cDNAs in pOAD (AD) and pOBD2 (BD) vectors

binding: no binding
B1: EF1γ, full-length cDNA, yeast two-hybrid fusion (protein, UniProt Q9NJH0 1-431)
chain: MVKGTLYTYPENFRAYKALIAAQYSGAQVKVADNFKFGETNKSAEFLKKFPGGKVPAFETAEGQYLSESNAIAYLLANEQLRGGKCPFVQAQVQQWISFADNEIVPASCAWVFPLLGILPQQKNSTAKQEAEAVLQQLNQKLQDATFLAGERITLADIVVFSSLLHLYEYVLEPSVRSAFGNVNRWFVTILNQKQVQAVVKDYKLCEKALVFDPKKYAEFQAKTGAAKPQQQAQQQKQEKKPKEKKEAPKKAAEPAEELDAADEALAAEPKSKDPFDALPKGTFNFDDFKRVYSNEDEAKSIPYFFDKFDAENYSIWFGEYKYNEELSKVFMSCNLITGMFQRLDKMRKAAFASVCLFGEDGNSTISGIWVWRGQDLAFTLSPDWQIDYEVYDWKKLDAKSEETKKLVTQYFSWSGTDKDGRKFNQGKIFK
